These are yes or no findings as the source states them, for the method shown. Binding seen in cells or lysates may run through a third protein. A yes stands for co-enrichment or nearness to the bait. Other partners may have been found.
Target: T1, Membrane associated RING finger protein 5 (MARCH5) (human (in human OC cell lines)) (UniProt Q9NX47)
T1 sequence: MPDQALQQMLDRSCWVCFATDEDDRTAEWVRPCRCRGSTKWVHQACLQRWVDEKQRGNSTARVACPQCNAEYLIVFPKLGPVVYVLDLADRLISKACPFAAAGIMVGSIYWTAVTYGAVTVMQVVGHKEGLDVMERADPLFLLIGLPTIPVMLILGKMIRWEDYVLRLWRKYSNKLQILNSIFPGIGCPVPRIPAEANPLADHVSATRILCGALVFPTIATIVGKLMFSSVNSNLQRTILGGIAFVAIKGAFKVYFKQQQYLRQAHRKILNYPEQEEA
Test: affinity purification with mass spectrometry; co-immunoprecipitation of MARCH5 from OC cells followed by mass spectrometry (IP-MS); conditions not given

binding: binds
B1: mitochondrial pyruvate carrier 1 (MPC1) (protein, UniProt Q9Y5U8 1-109)
chain: MAGALVRKAADYVRSKDFRDYLMSTHFWGPVANWGLPIAAINDMKKSPEIISGRMTFALCCYSLTFMRFAYKVQPRNWLLFACHATNEVAQLIQGGRLIKHEMTKTASA
